At least one compound was matched to its structure with a doubt left.
Tested on: excretion of biliary salt
Test: Cholagogic Action: effect on the excretion of biliary salt
Format: in vivo, rats (SD-JCL strain)
Conditions: 200 mg/kg oral
Experimental: Drugs as choleresis are used for patients to improve bile flow. In the present example, the effect of the compound of the invention on the quantities of bile and biliary salt is investigated. Methods:
The male rats (4 week-aged, SD-JCL strain) were anesthetized with sodium pentobarbital (37.5 mg/kg, intraperitoneal injection). The abdominal cavity was opened through a midline incision. The common bile duct was catheterized with polyethylene tube o.d. 0.8 mm. The catheter was brought to the outside through the abdominal incision would prior to closing. Bile was collected from the catheter continuously with time intervals of one hour. The quantity of bile produced in one hour was determined by weighing and that of biliary salt was determined by enzymatic method (Ikagaku Jikkenho Koza 1B, Biological Constituents II, edited by Tamio YAMAKAWA). The amount of biliary salt was represented in the term of cholic acid equivalent.
In the representation of the results, the quantities of bile and biliary salt produced in one hour prior to the administration of drug were taken as 100. The compound of this invention was orally administered at the dose of 200 mg/kg. As reference, anethol trithion was used.

COc1ccc(-c2cc(=S)ss2)cc1 [Anethol trithion, reference compound]
Excretion of biliary salt (in words): no particular increase

From patent US4080466A, “Pharmaceutical compositions containing 4-hydroxyl-1,3-dithiolan-2-ylidene malonates” (Nihon Nohyaku Co., Ltd., priority 1976, dated 1978)
